For this assay, the target named is T1, SyDdh (GST-SyDdh) (Synechocystis sp. PCC 6803, UniProt P74586).
T1 construct: gene ddh; Full ddh ORF, GST-tagged (tag kept, pGEX5X-1), expressed in E. coli DH5alpha, glutathione-Sepharose purified
T1 sequence (P74586 1-333): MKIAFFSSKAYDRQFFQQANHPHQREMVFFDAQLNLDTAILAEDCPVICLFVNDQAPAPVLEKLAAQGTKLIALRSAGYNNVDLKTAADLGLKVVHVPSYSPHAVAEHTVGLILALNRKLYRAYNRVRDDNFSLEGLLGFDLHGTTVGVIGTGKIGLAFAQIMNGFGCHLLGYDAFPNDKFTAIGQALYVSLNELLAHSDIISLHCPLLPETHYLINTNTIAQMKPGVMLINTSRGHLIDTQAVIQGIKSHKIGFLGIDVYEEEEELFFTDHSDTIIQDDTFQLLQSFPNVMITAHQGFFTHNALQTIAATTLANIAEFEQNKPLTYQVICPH
Put plainly: NADH oxidation followed at A340. It counts as biochemical. To be noted: read-out: % activity at 2.5 mM.

The source of these data is PMC5678113, “Substrate Specificity and Allosteric Regulation of a D-Lactate Dehydrogenase from a Unicellular Cyanobacterium are Altered by an Amino Acid Substitution” (Scientific Reports, 2017).

Take `O=C(O)CC(O)(CC(=O)O)C(=O)O` [citrate]: the activity at 2500 µM worked out at 116%.
